The text below walks through data of patent US20120322060A1, “DIAGNOSIS AND MONITORING TREATMENT OF PSYCHIATRIC DISEASES WITH SPADIN AND RELATED METHODS” (CENTRE NATIONAL DE LE RECHERCHE SCIENTIFIQUE - CNRS -, priority 2011, published 2012).

Protein sequences, listed by entry. Tags and fused reporters are not part of them. Residues count along the entry.
UniProt P97438: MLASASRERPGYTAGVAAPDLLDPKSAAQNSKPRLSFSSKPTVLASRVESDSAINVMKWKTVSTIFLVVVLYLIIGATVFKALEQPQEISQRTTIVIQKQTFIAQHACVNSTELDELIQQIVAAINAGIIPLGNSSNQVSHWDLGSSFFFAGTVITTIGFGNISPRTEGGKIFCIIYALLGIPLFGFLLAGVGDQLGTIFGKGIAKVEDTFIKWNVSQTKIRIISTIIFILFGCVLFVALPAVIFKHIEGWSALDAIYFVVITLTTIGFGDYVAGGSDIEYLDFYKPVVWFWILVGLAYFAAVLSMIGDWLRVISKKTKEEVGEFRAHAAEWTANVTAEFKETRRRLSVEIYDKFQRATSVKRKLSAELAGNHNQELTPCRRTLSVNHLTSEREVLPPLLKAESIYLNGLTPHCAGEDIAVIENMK
UniProt Q6PHU5, residues 74-825: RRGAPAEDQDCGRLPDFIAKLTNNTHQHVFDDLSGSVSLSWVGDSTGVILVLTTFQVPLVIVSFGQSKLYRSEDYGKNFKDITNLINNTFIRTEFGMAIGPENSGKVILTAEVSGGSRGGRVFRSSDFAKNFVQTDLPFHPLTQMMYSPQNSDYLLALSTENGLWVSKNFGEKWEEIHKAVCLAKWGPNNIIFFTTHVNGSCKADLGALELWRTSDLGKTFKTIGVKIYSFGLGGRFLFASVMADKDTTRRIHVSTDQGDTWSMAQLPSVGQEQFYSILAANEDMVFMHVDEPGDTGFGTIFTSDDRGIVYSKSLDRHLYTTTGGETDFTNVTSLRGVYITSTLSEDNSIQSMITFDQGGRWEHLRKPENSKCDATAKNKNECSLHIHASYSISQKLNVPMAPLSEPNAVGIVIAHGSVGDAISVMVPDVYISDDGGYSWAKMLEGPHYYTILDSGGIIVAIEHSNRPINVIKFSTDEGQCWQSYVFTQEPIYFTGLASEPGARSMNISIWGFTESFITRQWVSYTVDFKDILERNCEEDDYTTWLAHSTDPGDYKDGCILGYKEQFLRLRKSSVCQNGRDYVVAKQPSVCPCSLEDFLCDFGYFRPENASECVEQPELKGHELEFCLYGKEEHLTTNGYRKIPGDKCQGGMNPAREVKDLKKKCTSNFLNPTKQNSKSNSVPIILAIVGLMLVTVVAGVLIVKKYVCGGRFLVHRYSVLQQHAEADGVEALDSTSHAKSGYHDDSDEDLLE

Results are given in words; binding and its absence hold for the method and conditions named. In cells and extracts the contact can be indirect. Some entries that bind do so weakly or less than the wild type.

This assay addresses TREK-1 channel (endogenous, mouse neurons) (mouse) (UniProt P97438). Kind of assay: co-immunoprecipitation and Western blot, mouse cortical neurons.

Take “NTSR3/Sortilin (endogenous, mouse cortical neurons) (from UniProt Q6PHU5 74-825) (receptor)”: the binding result is “binds”.
